In paper PMC12152122:
No constants are given. Whether binding was seen depends on the method and setting. In cells and extracts the contact can be indirect. Some entries that bind do so weakly or less than the wild type. For some of these results: Where a sequence is shown, tags or fusion partners need not be part of it. One block for each molecule: values may come before it.

Sequences of proteins named here, by UniProt entry; tags and fusion partners are left off.
UniProt Q9Y266: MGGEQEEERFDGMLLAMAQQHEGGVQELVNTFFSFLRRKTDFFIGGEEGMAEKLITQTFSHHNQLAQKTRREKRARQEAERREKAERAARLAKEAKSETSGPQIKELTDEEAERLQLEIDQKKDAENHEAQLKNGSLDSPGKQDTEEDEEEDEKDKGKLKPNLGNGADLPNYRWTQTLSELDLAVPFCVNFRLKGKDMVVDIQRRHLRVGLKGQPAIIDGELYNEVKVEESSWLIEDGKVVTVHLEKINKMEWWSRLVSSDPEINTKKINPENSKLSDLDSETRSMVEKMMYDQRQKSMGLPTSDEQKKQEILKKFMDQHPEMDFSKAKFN

What was measured:
[1] = molecular target: T1, Flag-tagged full-length RNF41 (transfected in HEK293T cells) (UniProt Q9H4P4); assay: co-IP; HEK293T cells co-transfected with Myc-NUDC and Flag-tagged full-length RNF41 or its deletion mutants; immunoprecipitation with Flag beads, immunoblot with antibodies against Myc and Flag
T1 sequence: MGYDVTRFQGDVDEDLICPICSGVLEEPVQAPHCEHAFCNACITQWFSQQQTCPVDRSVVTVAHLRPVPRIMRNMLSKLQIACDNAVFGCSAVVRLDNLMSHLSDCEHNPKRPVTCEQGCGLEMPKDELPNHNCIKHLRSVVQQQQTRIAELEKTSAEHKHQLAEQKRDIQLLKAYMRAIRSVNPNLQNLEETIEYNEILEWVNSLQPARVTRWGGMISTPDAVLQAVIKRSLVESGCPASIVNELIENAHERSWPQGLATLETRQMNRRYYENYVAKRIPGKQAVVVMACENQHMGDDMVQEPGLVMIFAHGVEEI

[2] = molecular target: T2, FLAG-tagged RNF41 (transfected in T24 cells) (UniProt Q9H4P4); assay: co-IP; T24 cells transfected with FLAG-RNF41 and MYC-NUDC plasmids for 36 h; tagged protein with the endogenous counterpart
T2 sequence: T1 sequence

[3] = molecular target: Nuclear distribution protein C (NUDC) (endogenous, T24 cells) (human (endogenous in T24)) (UniProt Q9Y266); assay: co-IP; endogenous proteins in T24 cells
[4] = molecular target: MYC-tagged NUDC (transfected in T24 cells) (UniProt Q9Y266); assay: co-IP; T24 cells transfected with FLAG-RNF41 and MYC-NUDC plasmids for 36 h; tagged protein with the endogenous counterpart

binding [1]: binds
Molecule: Myc-NUDC (transfected in HEK293T cells) (from UniProt Q9Y266 1-331)

binding [2]: binds
Molecule: Nuclear distribution protein C (NUDC) (endogenous, T24 cells) (from UniProt Q9Y266 1-331)

binding [3]: binds
binding [4]: binds
B1: RNF41 (endogenous, T24 cells) (protein, UniProt Q9H4P4 1-317)
chain: T1 sequence
